The values that follow come from PubChem BioAssay AID493027 (The Scripps Research Institute Molecular Screening Center, 2011).

Amino acid sequences for entries named in this document (tags omitted). A change or cut given only in a name is not applied to a line headed by its entry.
UniProt O60240: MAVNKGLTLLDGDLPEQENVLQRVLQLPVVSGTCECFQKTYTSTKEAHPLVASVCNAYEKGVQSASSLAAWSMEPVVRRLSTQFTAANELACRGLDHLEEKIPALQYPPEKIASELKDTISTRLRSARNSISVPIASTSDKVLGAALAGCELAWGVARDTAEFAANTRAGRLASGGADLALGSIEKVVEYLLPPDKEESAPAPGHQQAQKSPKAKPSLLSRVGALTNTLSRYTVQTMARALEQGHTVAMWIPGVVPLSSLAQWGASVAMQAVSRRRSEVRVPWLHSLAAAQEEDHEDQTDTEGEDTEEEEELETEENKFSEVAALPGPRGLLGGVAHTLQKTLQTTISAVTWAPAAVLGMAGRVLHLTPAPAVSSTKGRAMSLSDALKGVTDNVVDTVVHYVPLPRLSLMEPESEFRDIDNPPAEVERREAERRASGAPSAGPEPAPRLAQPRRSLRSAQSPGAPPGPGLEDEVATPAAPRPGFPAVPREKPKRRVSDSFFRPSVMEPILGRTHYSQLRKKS
UniProt Q8WTS1: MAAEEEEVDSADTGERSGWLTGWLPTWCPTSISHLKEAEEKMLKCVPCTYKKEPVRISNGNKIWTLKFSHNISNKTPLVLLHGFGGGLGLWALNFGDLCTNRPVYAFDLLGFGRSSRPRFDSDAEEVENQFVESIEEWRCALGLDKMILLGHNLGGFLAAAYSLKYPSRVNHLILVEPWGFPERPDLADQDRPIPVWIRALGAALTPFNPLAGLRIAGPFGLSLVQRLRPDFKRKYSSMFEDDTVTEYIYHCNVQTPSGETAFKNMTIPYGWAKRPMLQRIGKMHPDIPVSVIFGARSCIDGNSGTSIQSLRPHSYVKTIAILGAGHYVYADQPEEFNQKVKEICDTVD

Values joined by “and” are separate entries in the source; they are usually repeats but may differ in a detail not shown here. Equal values may be shown once. Hit rate of the full screen: of about 2,000 compounds, about 45 (2%) were called active.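 Rule for the calls: active = inhibition above the screen-wide mean inhibition plus 3 SD (cut at about 44% in these data); inactive = the rest.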 The list shows a part of the results.

The target in the assay is Perilipin-1 (Homo sapiens) + 1-acylglycerol-3-phosphate O-acyltransferase ABHD5 (Homo sapiens) (UniProt O60240+Q8WTS1). Put plainly: ABHD5-PLIN1 interaction inhibitors, pilot screen, cell lysate, split luciferase complementation, luminescence, NIH validation set (AID 493027).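 Note: 0% = DMSO wells with the 100% control not disclosed.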 To be noted: split G. princeps luciferase complementation, 4 h; at 7.9 µM, active compounds read high.
`C[N+](C)(C)CCOP(=O)(O)OP(=O)([O-])OC[C@H]1O[C@@H](n2ccc(N)nc2=O)[C@H](O)[C@@H]1O`: the inhibition is inactive: 4.34%.

`C[C@]12CC[C@@H]3c4ccc(O)cc4[C@@H](O)C[C@H]3[C@@H]1CC[C@@H]2O`: the inhibition was inactive: 1.76%. The value for `COc1ccc(/C=C2\CCn3c2nc2cc(C(=O)O)ccc2c3=O)cc1OC` was inactive: -6.3%.

On to `O=C(NCCN1CCN(c2ccccc2)CC1)c1cccc(Br)c1`, for which the inhibition is inactive: -3.13%. On to `CCOc1ccc(CCn2c(-c3ccco3)nc3ccccc3c2=O)cc1OCC`, for which the inhibition was inactive: 3.19%. Consider `CC(C)CN1CCN(Cc2ccc3ncccc3c2)CC1CCO` (stereo unspecified), for which the inhibition is inactive: -14.4%.

In the case of `Cc1cccc(NC(=O)c2cc3ccccc3o2)c1`, the inhibition was inactive: 5.84%. To `c1ccc(CN(CC2=NCCN2)c2ccccc2)cc1` belongs inactive: -5.29% and inactive: -4.12%; to `O=c1oc2c(CN3CCN(CCO)CC3)c(O)ccc2cc1-c1ccccn1`, inactive: 0.68%. To `CCOC(=O)c1cnc2ccc(C(=O)OC)cc2c1Nc1ccc2c(c1)OCCO2` belongs inactive: 5.34%; to `CC(=O)Nc1ccccc1O`, inactive: 2.03%; to `O=c1cc(Cn2ccnc2)c2cc3c(cc2o1)CCC3`, inactive: 3.38%. The value for `S=C(c1ccc2c(c1)OCO2)N1CCCCC1` was inactive: -0.57%; that for `COc1cc2c3c(c1)C(C)CC(C)(C)N3C(=O)C2=O` (stereo unspecified) was inactive: 6.69%; that for `COc1ccc(C(=O)NCc2cccnc2)cc1` was inactive: -5.65%. `COc1ccc(O)c(N)c1`: the inhibition is inactive: 21.5%. Turning to `Oc1[nH]c2ccccc2c1N=Nc1ccccc1`, the inhibition is inactive: -0.17%. To `C=CCn1c(N2CCCCCC2)nc2c1c(=O)n(C)c(=O)n2C` belongs inactive: -0.7%; to `COc1ccc(CN(C)CCc2ccccn2)cc1OC`, inactive: -9.24%.

`S=C(NCc1ccccc1)NCc1cccc(CNC(=S)NCc2ccccc2)c1`: the inhibition is inactive: 4.65%.

Turning to `CC(=O)OCC(=O)[C@@]1(OC(C)=O)[C@@H](C)C[C@H]2[C@@H]3C[C@H](F)C4=CC(=O)C=C[C@]4(C)[C@@]3(F)[C@@H](O)C[C@@]21C`, the inhibition was inactive: -5.29%. The value for `CC(N=C(NC#N)Nc1ccncc1)C(C)(C)C` (stereo unspecified) was inactive: -8.82%; that for `CC(C)C[C@H]1C(=O)N2CCC[C@H]2[C@]2(O)O[C@](NC(=O)[C@@H]3C=C4c5cccc6[nH]c(Br)c(c56)CC4N(C)C3)(C(C)C)C(=O)N12` (stereo partly specified) was inactive: 13.6%. The value for `O=C(NO)c1ccccc1O` was inactive: -9.16%; that for `COc1cc2nc(-c3ccccc3)nc(N3CCCC3)c2cc1OC` was inactive: 5.54%; that for `O=c1[nH]c(Cc2ccccc2)nc2c1oc1ccccc12` was inactive: -3.99%. Take `C#C[C@]1(O)CC[C@H]2[C@@H]3CCC4=CC(=O)CC[C@@H]4[C@H]3CC[C@@]21CC`: the inhibition was inactive: -5.32%. To `CC(=O)OCC(=O)[C@H]1CC[C@H]2[C@@H]3CCC4=CC(=O)CC[C@]4(C)[C@H]3CC[C@]12C` belongs inactive: -2.69%; to `CCOC(=O)Cn1c(C)cc(=O)c2ccccc21`, inactive: 3.65%.

Regarding `CCc1cc2c(=O)c(-c3ccc(F)cc3)c(C)oc2cc1OCC(=O)O`, the inhibition was inactive: 1.69%. To `O=C(O)CP(=O)(O)O` belongs inactive: -2.55%. Take `CNc1nc(N(C)C)nc(N(C)C)n1`: the inhibition is inactive: -4.5%. To `COc1ccc(C(=O)/C=C/c2cc(C(=O)O)cc3c2OCOC3)c(O)c1` belongs active: 67.3%; to `Cc1ccc(S(=O)(=O)Oc2ccccc2/C=N/N=C(N)N)cc1`, inactive: 0.02%. To `COc1ccccc1C(=O)c1cc2ccc(O)cc2oc1=O` belongs inactive: 4.61%. On to `O=C(c1ccc(O)cc1)c1ccc(O)cc1O`, for which the inhibition was inactive: 2.64%. The value for `COc1ccc2[nH]c(=O)c(CNC3CCCCC3)cc2c1` was inactive: -4.19%; that for `COc1cc2c(cc1OC)C(Cc1ccc(O)cc1)N(C)CC2` (stereo unspecified) was inactive: 6.17%; that for `CN(C)C(=O)Oc1ccc[n+](C)c1` was inactive: -7.41%. Turning to `CC(=O)CCc1c(C)c2cccc(C)c2[nH]c1=O`, the inhibition was inactive: -7.07%. Take `COc1ccccc1OCC(O)COC(N)=O` (stereo unspecified): the inhibition is inactive: 1.99%.

Take `COC(=O)c1ccccc1NC(=O)c1ccc(COc2ccc3c(c2)CCC3)cc1`: the inhibition is inactive: -13%. The value for `Cc1c2c(nc3c(C)cccc13)OC(C)C2` (stereo unspecified) was inactive: 0.69%; that for `CN1CCCC(OC(=O)c2ccc3c(c2)OCCO3)C1` (stereo unspecified) was inactive: -4.03%; that for `O=c1nc2cccc3c2=c(/c1=C(\O)c1ccccc1)c1ccccc1c3=O` was inactive: 9.17%. The value for `CC(C)Cc1nc(NCCN2CCOCC2)c(C#N)c2c1COC(C)(C)C2` was inactive: -9.04%; that for `Fc1ccc(-c2cc(-c3ccccc3)nc(-n3cccn3)n2)cc1` was inactive: 1.17%; that for `O=C1NCC2=C1C(c1ccccc1)Nc1ccccc1N2` (stereo unspecified) was inactive: 0.93%. The value for `Cc1ccc2c(c1)C(O)(C1COC(C)(C)CC1=O)C(=O)N2C` (stereo unspecified) was inactive: -9.79%; that for `c1ccc(CNc2ncnc3nc[nH]c23)cc1` was inactive: -7.6%; that for `O=C1NC(=O)C(c2ccccc2)(c2ccccc2)N1` was inactive: -10.3% and inactive: 0.44%.

Take `Cc1ccccc1-c1nn(-c2ccc(F)cc2F)cc1CNCCN(C)C`: the inhibition is inactive: -6.83%. To `COc1ccc(C2C3=C(OC(C)=O)c4ccccc4C3=Nc3c2c(=O)n(C)c(=O)n3C)cc1` (stereo unspecified) belongs inactive: -2.98%. The value for `COC1CCN(Cc2cn(Cc3ccccc3)nc2-c2cc3ccccc3o2)CC1` was inactive: -8.86%; that for `Cc1cccc(-c2ncc(CN3CCN(CC(C)C)C(CCO)C3)cn2)c1` (stereo unspecified) was inactive: -1.43%. For `COc1ccc(Cc2noc(CN(C)CC3(N4CCOCC4)CCCCC3)n2)cc1OC`, the inhibition is inactive: -1.95%.

In the case of `CN(C)CCCN1c2ccccc2Sc2ccc(Cl)cc21`, the inhibition is inactive: 7.85% and inactive: 4.58%. The value for `COc1ccc(C(=O)Nc2cccc3cccnc23)cc1OC` was inactive: 5.1%.

In the case of `CC(=O)Oc1ccc2occ(/C=N/c3cc(=O)[nH]c(=S)[nH]3)c(=O)c2c1`, the inhibition was inactive: -1.72%. The value for `O=c1ccc2ccccc2o1` was inactive: -11.4%; that for `CC1(C)CC(CNCCC(c2ccc(F)cc2)c2ccco2)CCO1` (stereo unspecified) was inactive: -10.1%. The value for `O=C(O)C[C@@H](O)C(=O)O` was inactive: -3.71%; that for `O=C1C(=O)N2C(=C1C(=O)N1CCCCCC1)c1ccccc1CC21CCCC1` was inactive: -6.88%. To `CCN1/C(=C/C=C/C=C/c2sc3ccccc3[n+]2CC)Sc2ccccc21` belongs active: 52.7%. Regarding `O=C(CN1C(=O)c2ccccc2C1=O)Nc1cccc([N+](=O)[O-])c1`, the inhibition was inactive: -6.73%. Consider `O=c1[nH]cnc2c1ncn2[C@@H]1O[C@H](CO)[C@@H](O)[C@H]1O`, for which the inhibition is inactive: -1.58%.

For the compound `CCc1nc2ccccc2n1Cc1ccc(OC)c(OC)c1`, the inhibition is inactive: 0.12%. To `C[C@@H]1C[C@H]2[C@@H]3C[C@H](F)C4=CC(=O)C=C[C@]4(C)[C@@]3(F)[C@@H](O)C[C@]2(C)[C@@]1(O)C(=O)COC(=O)C(C)(C)C` belongs inactive: 6.23%; to `COc1ccc(CCN=CC2=C(O)CC(C)(C)CC2=O)cc1`, inactive: -4.85%; to `C=CCNC(=O)c1ccc(-c2cccc([N+](=O)[O-])c2)o1`, inactive: -9.66%. The value for `CC(C)CCC1(CCNC(C)c2cccs2)CCOC(C)(C)C1` (stereo unspecified) was inactive: -4.9%.

Consider `COc1ccc(CC(=O)c2c(O)cc(O)cc2O)cc1OC`, for which the inhibition is inactive: 7.05%. Take `COc1ccc(NC(=O)CC2C(=O)N(C)C(=S)N2Cc2ccncc2)cc1` (stereo unspecified): the inhibition is inactive: -1.63%. To `Nc1ccn([C@@H]2O[C@H](CO)[C@@H](O)[C@@H]2O)c(=O)n1` belongs inactive: -6.44%; to `NC(N)=N/N=C/c1cccc(Cl)c1Cl`, inactive: -10%; to `COc1cc2c(cc1OC)-c1cc(NC3CCCCCC3)nc(=O)n1CC2`, inactive: 12.8%.

Regarding `CCOc1cc2c(cc1OCC)C(c1ccccc1)N(c1ccc(C(=O)O)cc1)C(=O)C2` (stereo unspecified), the inhibition is inactive: 4.36%. To `O=C(CCN1CCC(c2ccccc2)C1)c1ccc2c(c1)OCCO2` (stereo unspecified) belongs inactive: 30.4%; to `c1ccc(Cn2nnc3cnccc32)cc1`, inactive: -3.96%. The value for `CCOc1ccc(C(=O)/C=C/c2cc(OC)c(OC)c(OC)c2)cc1` was inactive: 22.5%; that for `CC(=O)Nc1nc(CCC(C)C)cc2c1c(=O)oc1ccccc12` was inactive: -9.01%. `CC(COc1ccccc1)NC(C)C(O)c1ccc(O)cc1` (stereo unspecified): the inhibition is inactive: -4.08%.

Consider `CC(C)(C)c1ccc(C(O)CCCN2CCC(C(O)(c3ccccc3)c3ccccc3)CC2)cc1` (stereo unspecified), for which the inhibition is inactive: -10.9%. The value for `CCc1ccc(CN(C)Cc2nc(Cc3ccccc3)no2)nc1` was inactive: 1.2%. The value for `O=C(O)CCCCCN1C(=O)C(=O)/C(=C(/O)c2ccccc2)C1c1ccccc1` (stereo unspecified) was inactive: -14.4%; that for `Cn1c2c(c(=O)[nH]c1=O)C(c1ccc(O)cc1)C1=C(N2)c2ccccc2C1=O` (stereo unspecified) was inactive: 8.86%.

Turning to `O=c1c2ccccc2nc2n1-c1ccccc1CCC2`, the inhibition was inactive: -5.25%. Regarding `CN(C)CCOCCOc1ccc(Cl)cc1Br`, the inhibition was inactive: -2.32%. With `O=C(Oc1cccccc1=O)c1ccccc1`, the inhibition was inactive: -14.4%.

In the case of `Cc1nonc1CN(C)C(=O)c1ccc(OC2CCN(Cc3ccccn3)CC2)cc1`, the inhibition was inactive: -6.55%. Consider `COc1ccc(-c2onc(C)c2-c2ccc(C(=O)OC(C)C)o2)c(O)c1`, for which the inhibition was inactive: 1.7%. `C=CCNC(=S)N1CCc2c([nH]c3ccccc23)C1C` (stereo unspecified): the inhibition was inactive: -7%. To `OC[C@H]1O[C@@H](n2cnc3c(Nc4ccccc4)ncnc32)[C@H](O)[C@@H]1O` belongs inactive: -8.54%; to `Cc1cc(-c2nn(-c3ccccc3F)cc2CN2CCCC(O)C2)c(C)s1` (stereo unspecified), inactive: -4.69%. In the case of `Cc1cc(-c2ccccc2)nnc1NCCN1CCOCC1`, the inhibition is inactive: -9.05%.

Turning to `OCCN(Cc1nc(-c2ccc3c(c2)OCO3)no1)Cc1cccs1`, the inhibition is inactive: 3.67%.

A word on the inhibition: it is the drop in the measured response relative to a control, in per cent.
